In test [1] the target is fatty acid synthase subunit Fas1 (S. cerevisiae) (UniProt P07149). Description: selective ribosome profiling (SeRP); RNase I monosomes pelleted through sucrose, Twin-StrepII bait pulled down on Streptactin sepharose, ribosome footprints of the IP against the total translatome; cycloheximide.
The target is the same in test [2]. As to the kind of experiment: RIP-qPCR (affinity purification of the bait, qPCR of the co-enriched mRNA of the nascent partner); Twin-StrepII bait from yeast lysate on Streptactin resin, 4 °C, lysis in 500 mM KCl, washes in 140 mM KCl; cycloheximide against puromycin; co-translational if mean signal with cycloheximide >=1.5 and significantly lower with puromycin; also Nsp1-StrepII in the Nup57 alpha-beta deletion strain. In general terms: Real-time PCR tracks product formation cycle by cycle.

Protein sequences, listed by entry. Tags and fused reporters are not part of them.
UniProt P07149: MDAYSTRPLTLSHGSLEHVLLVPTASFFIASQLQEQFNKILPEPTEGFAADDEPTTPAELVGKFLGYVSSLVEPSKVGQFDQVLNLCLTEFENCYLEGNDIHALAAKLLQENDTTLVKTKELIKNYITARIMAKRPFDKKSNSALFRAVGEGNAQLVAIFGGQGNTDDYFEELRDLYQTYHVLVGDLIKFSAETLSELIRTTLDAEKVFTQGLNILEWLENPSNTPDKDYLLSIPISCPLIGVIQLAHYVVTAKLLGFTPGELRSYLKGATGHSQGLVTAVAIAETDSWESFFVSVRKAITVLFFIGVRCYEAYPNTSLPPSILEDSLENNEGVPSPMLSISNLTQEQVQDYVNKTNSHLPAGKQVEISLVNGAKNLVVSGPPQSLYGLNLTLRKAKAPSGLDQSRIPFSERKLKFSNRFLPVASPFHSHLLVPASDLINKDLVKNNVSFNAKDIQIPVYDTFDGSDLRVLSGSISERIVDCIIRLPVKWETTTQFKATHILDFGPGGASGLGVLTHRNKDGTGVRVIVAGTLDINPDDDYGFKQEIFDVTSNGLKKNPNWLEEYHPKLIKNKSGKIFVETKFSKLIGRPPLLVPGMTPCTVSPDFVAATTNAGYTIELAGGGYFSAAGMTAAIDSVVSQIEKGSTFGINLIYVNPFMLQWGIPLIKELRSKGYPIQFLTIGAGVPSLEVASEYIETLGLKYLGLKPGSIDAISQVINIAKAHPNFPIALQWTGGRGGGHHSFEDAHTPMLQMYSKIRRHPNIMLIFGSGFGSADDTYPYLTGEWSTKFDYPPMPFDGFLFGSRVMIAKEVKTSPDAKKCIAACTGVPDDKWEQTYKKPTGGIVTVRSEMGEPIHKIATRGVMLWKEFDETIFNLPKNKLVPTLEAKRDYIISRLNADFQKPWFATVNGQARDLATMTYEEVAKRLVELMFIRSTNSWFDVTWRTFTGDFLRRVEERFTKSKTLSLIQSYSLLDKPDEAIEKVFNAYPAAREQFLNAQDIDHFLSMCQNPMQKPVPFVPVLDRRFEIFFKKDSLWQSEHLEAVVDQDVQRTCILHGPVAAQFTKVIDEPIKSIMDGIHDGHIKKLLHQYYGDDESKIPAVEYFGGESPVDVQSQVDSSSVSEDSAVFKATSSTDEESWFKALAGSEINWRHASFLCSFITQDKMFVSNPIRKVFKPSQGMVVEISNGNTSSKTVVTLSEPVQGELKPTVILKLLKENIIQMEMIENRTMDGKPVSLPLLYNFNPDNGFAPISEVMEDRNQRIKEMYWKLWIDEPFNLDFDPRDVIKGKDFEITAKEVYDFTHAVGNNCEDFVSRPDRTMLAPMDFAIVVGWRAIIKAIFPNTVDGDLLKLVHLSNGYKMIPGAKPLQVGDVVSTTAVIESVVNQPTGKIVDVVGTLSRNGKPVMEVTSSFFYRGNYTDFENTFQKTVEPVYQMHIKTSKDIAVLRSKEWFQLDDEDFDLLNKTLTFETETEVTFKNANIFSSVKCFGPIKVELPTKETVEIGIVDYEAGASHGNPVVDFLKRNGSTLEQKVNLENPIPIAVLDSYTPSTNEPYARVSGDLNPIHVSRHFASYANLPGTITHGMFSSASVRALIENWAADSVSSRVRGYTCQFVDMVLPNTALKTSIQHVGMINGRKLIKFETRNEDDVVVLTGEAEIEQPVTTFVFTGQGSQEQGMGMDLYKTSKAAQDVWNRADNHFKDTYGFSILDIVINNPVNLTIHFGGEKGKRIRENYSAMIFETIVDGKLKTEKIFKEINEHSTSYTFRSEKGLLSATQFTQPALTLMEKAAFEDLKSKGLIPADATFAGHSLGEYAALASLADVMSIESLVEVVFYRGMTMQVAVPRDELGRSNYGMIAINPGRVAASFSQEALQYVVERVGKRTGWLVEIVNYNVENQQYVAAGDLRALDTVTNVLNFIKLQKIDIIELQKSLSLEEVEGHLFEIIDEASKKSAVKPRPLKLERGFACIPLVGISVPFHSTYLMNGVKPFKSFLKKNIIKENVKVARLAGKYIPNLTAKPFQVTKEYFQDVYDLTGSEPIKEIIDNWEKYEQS
UniProt P19097: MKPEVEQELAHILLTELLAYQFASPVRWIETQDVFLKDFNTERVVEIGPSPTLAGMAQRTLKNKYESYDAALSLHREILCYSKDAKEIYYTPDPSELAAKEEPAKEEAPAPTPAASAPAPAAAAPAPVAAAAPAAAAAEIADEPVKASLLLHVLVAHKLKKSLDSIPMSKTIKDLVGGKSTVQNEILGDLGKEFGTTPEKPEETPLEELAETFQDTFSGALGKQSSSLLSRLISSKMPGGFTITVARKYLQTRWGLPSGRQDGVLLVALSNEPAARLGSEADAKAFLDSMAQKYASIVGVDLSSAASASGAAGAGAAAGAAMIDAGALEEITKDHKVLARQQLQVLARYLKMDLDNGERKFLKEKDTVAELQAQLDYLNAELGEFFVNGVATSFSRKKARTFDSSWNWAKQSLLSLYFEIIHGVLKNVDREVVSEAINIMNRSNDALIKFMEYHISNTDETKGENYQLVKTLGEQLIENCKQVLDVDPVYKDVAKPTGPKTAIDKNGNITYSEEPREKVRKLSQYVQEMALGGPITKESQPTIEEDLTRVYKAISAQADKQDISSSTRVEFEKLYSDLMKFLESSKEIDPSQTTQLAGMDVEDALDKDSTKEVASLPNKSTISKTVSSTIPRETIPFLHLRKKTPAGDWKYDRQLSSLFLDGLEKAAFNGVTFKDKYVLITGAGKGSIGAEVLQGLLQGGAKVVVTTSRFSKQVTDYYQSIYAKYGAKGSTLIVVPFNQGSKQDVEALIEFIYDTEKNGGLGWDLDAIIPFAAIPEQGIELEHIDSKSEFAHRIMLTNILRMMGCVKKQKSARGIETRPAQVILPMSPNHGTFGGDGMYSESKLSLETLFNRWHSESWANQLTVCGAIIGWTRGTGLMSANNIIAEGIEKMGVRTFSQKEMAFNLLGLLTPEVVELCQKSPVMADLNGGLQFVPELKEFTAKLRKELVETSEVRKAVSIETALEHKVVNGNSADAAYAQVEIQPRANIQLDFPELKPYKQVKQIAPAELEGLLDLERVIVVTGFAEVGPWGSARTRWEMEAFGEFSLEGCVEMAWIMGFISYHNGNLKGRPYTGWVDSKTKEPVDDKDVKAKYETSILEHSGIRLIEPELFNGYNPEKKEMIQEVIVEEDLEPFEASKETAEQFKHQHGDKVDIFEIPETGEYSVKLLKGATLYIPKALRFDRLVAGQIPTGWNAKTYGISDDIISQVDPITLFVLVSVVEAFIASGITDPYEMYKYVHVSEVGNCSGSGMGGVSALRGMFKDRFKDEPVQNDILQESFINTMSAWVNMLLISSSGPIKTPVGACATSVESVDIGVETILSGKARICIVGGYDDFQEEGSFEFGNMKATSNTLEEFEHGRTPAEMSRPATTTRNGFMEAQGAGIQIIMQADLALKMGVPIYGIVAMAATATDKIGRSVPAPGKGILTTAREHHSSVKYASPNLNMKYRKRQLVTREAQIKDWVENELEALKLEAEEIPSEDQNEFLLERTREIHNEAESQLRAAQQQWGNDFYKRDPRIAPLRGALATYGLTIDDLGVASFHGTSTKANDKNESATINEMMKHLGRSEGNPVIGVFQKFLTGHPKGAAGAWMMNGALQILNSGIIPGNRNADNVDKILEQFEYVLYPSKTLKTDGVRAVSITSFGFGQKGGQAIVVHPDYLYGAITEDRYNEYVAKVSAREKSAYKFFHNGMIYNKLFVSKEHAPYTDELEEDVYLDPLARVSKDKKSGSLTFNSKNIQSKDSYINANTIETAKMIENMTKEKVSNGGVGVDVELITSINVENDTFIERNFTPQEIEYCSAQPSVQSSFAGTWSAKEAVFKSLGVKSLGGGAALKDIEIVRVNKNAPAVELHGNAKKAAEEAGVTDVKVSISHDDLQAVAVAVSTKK
UniProt P38181: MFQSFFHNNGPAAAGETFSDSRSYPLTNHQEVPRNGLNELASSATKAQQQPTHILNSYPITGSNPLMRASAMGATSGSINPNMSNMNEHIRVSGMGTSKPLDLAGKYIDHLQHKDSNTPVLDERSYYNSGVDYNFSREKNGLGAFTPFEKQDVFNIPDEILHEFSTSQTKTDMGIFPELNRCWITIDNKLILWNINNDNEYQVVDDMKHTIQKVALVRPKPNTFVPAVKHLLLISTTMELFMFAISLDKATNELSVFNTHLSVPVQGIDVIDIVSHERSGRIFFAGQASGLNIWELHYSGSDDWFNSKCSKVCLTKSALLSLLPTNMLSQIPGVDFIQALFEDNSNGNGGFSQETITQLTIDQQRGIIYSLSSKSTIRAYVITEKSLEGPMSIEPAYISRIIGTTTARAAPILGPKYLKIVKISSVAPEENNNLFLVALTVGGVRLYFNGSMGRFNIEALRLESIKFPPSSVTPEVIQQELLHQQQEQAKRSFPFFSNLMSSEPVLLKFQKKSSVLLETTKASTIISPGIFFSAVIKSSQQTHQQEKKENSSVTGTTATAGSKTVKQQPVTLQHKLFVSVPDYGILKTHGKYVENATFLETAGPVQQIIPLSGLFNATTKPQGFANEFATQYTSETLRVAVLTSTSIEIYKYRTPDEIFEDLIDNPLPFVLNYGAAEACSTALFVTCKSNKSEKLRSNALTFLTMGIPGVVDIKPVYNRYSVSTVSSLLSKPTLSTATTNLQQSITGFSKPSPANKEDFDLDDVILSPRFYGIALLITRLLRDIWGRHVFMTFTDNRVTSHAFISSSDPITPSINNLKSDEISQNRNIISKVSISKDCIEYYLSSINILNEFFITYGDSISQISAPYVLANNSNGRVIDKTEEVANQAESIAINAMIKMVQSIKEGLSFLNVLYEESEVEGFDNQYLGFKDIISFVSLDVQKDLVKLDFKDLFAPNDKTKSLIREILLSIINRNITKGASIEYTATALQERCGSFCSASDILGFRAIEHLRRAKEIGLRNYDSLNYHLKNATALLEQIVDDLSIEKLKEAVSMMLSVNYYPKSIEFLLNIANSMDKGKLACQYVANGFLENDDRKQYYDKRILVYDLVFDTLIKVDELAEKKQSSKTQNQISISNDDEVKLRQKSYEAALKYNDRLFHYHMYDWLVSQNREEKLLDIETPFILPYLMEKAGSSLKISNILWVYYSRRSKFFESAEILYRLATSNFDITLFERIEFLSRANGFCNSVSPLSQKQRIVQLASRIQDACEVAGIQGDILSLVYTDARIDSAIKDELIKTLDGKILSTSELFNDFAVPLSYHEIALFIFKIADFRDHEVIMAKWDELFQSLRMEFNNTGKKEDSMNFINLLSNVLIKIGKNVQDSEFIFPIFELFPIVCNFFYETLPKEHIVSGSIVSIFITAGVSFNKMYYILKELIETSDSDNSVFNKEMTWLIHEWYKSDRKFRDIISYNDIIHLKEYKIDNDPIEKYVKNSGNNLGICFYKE
UniProt P40368: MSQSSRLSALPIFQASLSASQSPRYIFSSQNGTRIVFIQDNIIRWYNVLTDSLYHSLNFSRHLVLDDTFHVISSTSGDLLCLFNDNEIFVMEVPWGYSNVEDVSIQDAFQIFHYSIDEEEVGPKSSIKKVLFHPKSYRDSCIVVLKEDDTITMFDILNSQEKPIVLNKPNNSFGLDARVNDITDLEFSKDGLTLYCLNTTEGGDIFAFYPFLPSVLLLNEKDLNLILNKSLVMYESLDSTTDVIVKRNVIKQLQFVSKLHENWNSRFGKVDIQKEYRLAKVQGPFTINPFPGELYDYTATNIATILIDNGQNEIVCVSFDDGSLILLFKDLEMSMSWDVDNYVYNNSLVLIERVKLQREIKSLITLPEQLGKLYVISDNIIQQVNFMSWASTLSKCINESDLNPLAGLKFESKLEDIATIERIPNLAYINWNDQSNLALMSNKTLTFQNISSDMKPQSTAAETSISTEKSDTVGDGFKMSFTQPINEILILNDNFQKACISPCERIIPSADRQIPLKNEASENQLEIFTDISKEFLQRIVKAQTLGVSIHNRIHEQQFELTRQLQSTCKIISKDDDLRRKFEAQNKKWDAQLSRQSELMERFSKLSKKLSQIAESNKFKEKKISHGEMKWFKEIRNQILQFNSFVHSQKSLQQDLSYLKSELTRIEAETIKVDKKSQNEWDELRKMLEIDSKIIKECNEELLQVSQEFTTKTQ

In a further test the target is T1, Nup53 (S. cerevisiae) (UniProt Q03790).
T1 sequence: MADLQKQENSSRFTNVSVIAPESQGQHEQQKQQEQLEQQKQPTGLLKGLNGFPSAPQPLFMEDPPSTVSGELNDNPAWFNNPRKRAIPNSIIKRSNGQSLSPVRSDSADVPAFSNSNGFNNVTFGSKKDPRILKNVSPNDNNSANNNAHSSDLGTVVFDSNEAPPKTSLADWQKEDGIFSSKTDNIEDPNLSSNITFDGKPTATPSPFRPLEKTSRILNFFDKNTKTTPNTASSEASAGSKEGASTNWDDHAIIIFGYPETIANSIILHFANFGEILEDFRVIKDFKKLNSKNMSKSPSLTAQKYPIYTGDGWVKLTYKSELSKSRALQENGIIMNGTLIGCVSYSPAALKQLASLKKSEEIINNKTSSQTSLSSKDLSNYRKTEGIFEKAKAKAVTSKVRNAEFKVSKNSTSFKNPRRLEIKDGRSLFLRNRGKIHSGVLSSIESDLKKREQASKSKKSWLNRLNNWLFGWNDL
Described as above.

In a further test the target is Nup116 (S. cerevisiae) (UniProt Q02630). Described as above.
The next test has as its target T2, Gle2 (S. cerevisiae) (UniProt P40066).
T2 sequence: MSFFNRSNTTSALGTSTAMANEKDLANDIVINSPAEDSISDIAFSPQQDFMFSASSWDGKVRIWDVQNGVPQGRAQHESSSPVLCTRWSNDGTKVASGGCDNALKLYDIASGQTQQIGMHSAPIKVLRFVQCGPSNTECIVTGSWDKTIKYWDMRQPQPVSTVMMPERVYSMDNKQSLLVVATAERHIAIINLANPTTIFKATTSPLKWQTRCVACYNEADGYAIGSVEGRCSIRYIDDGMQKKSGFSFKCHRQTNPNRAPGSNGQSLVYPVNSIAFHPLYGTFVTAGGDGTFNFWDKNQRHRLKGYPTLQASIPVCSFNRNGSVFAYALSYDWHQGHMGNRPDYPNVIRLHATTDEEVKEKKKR
The description is as above.

The next test addresses Fas2 (S. cerevisiae) (UniProt P19097). As to the kind of experiment: condition: only to the nascent chain (co-translational engagement); binding of the finished proteins not tested; RIP-qPCR (affinity purification of the bait, qPCR of the co-enriched mRNA of the nascent partner); Twin-StrepII bait from yeast lysate on Streptactin resin, 4 °C, lysis in 500 mM KCl, washes in 140 mM KCl; cycloheximide against puromycin; co-translational if mean signal with cycloheximide >=1.5 and significantly lower with puromycin; also Nsp1-StrepII in the Nup57 alpha-beta deletion strain.

For another test, the target named is T3, Sec13 (S. cerevisiae) (UniProt Q04491).
T3 sequence: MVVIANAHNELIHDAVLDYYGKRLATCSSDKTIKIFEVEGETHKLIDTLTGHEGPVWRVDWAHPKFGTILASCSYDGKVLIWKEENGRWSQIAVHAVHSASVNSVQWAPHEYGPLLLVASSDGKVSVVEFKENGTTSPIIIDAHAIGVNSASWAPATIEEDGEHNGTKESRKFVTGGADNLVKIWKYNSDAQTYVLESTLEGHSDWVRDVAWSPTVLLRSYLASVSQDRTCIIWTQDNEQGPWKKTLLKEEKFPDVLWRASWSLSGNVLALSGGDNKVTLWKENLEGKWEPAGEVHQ
Description: selective ribosome profiling (SeRP); RNase I monosomes pelleted through sucrose, Twin-StrepII bait pulled down on Streptactin sepharose, ribosome footprints of the IP against the total translatome; cycloheximide.

The target in test [3] is Nup170 (S. cerevisiae) (UniProt P38181). As to the kind of experiment: condition: only to the nascent chain (co-translational engagement); binding of the finished proteins not tested; RIP-qPCR (affinity purification of the bait, qPCR of the co-enriched mRNA of the nascent partner); Twin-StrepII bait from yeast lysate on Streptactin resin, 4 °C, lysis in 500 mM KCl, washes in 140 mM KCl; cycloheximide against puromycin; co-translational if mean signal with cycloheximide >=1.5 and significantly lower with puromycin; also Nsp1-StrepII in the Nup57 alpha-beta deletion strain.

Test [4] has the same target. Description: condition: only to the nascent chain (co-translational engagement); binding of the finished proteins not tested; selective ribosome profiling (SeRP); RNase I monosomes pelleted through sucrose, Twin-StrepII bait pulled down on Streptactin sepharose, ribosome footprints of the IP against the total translatome; cycloheximide.

Consider seven molecules from paper PMC8907234.

Results are given in words; binding and its absence hold for the method and conditions named. Some entries that bind do so weakly or less than the wild type.

Regarding Fas2 (from UniProt P19097 1-1887), the binding entry in test [1] and in test [2] was “binds” throughout. Take Nup170 (from UniProt P38181 1-1502): the binding entry in the test with Nup53 (S. cerevisiae) is “binds”.

In the case of Nup82 (from UniProt P40368 1-713), the binding entry with Nup116 (S. cerevisiae) was “binds”. For the molecule Nup116 (from UniProt Q02630 1-1113), the binding result with Gle2 (S. cerevisiae) is “binds”. Turning to “fatty acid synthase subunit Fas1 (from UniProt P07149 1-2051)”, in the test with Fas2 (S. cerevisiae), the binding entry was “no binding”. As for Sec16 (from UniProt P48415 1-2195), in the test with Sec13 (S. cerevisiae), the binding entry is given as “binds”.

B1: Nup53 (protein, UniProt Q03790 1-475)
chain: T1 sequence
On to B1, for which the binding entry with Nup170 (S. cerevisiae) [3] and in the test with Nup170 (S. cerevisiae) [4] was “no binding” throughout.
